Measured values as given in US20260274946A1.
Results are given in words; binding and its absence hold for the method and conditions named. Some binding calls cover weakened binding; strength is not graded here.

B1: recombinant CAT19 antibody (antibody, V domains shown)
VH: QVQLQQSGPELVKPGASVKISCKASGYAFSSSWMNWVKQRPGKGLEWIGRIYPGDEDTNYSGKFKDKATLTADKSSTTAYMQLSSLTSEDSAVYFCARSLLYGDYLDYWGQGTTLTVSS
VL: QIVLTQSPAIMSASPGEKVTMTCSASSSVSYMHWYQQKSGTSPKRWIYDTSKLASGVPDRFSGSGSGTSYFLTINNMEAEDAATYYCQQWNINPLTFGAGTKLELKR
B2: 4g7 scFv in VL-VH orientation, displayed on SupT1 cells in a non-signalling CAR format (scFv, not shown: small tags and cut ends; large carriers)
chain: DIVMTQAAPSIPVTPGESVSISCRSSKSLLNSNGNTYLYWFLQRPGQSPQLLIYRMSNLASGVPDRFSGSGSGTAFTLRISRVEAEDVGVYYCMQHLEYPFTFGAGTKLELKRSGGGGSGGGGSGGGGSEVQLQQSGPELIKPGASVKMSCKASGYTFTSYVMHWVKQKPGQGLEWIGYINPYNDGTKYNEKFKGKATLTSDKSSSTAYMELSSLTSEDSAVYYCARGTYYYGSRVFDYWGQGTTLTVSS
B3: CAT19 scFv in VH-VL orientation, displayed on SupT1 cells in a non-signalling CAR format (scFv, not shown: small tags and cut ends; large carriers)
chain: QVQLQQSGPELVKPGASVKISCKASGYAFSSSWMNWVKQRPGKGLEWIGRIYPGDEDTNYSGKFKDKATLTADKSSTTAYMQLSSLTSEDSAVYFCARSLLYGDYLDYWGQGTTLTVSSGGGGSGGGGSGGGGSQIVLTQSPAIMSASPGEKVTMTCSASSSVSYMHWYQQKSGTSPKRWIYDTSKLASGVPDRFSGSGSGTSYFLTINNMEAEDAATYYCQQWNINPLTFGAGTKLELKR
B4: CAT19 scFv in VL-VH orientation, displayed on SupT1 cells in a non-signalling CAR format (scFv, not shown: small tags and cut ends; large carriers)
chain: QIVLTQSPAIMSASPGEKVTMTCSASSSVSYMHWYQQKSGTSPKRWIYDTSKLASGVPDRFSGSGSGTSYFLTINNMEAEDAATYYCQQWNINPLTFGAGTKLELKRSGGGGSGGGGSGGGGSQVQLQQSGPELVKPGASVKISCKASGYAFSSSWMNWVKQRPGKGLEWIGRIYPGDEDTNYSGKFKDKATLTADKSSTTAYMQLSSLTSEDSAVYFCARSLLYGDYLDYWGQGTTLTVSS
B5: 4g7 scFv in VH-VL orientation, displayed on SupT1 cells in a non-signalling CAR format (scFv, not shown: small tags and cut ends; large carriers)
chain: EVQLQQSGPELIKPGASVKMSCKASGYTFTSYVMHWVKQKPGQGLEWIGYINPYNDGTKYNEKFKGKATLTSDKSSSTAYMELSSLTSEDSAVYYCARGTYYYGSRVFDYWGQGTTLTVSSGGGGSGGGGSGGGGSDIVMTQAAPSIPVTPGESVSISCRSSKSLLNSNGNTYLYWFLQRPGQSPQLLIYRMSNLASGVPDRFSGSGSGTAFTLRISRVEAEDVGVYYCMQHLEYPFTFGAGTKLELKR

Assays:
[1] = molecular target: CD19 on SupT1 cells engineered to express CD19 (UniProt P15391); assay: flow cytometry, SupT1.CD19 cells against SupT1 cells, anti-mouse secondary
[2] = molecular target: CD19 on SupT1 cells engineered to express CD19 (UniProt P15391); assay: flow cytometry staining of SupT1 (CD19 negative) and SupT1 cells engineered to be CD19 positive
[3] = molecular target: recombinant human truncated CD19-mouse IgG2a Fc fusion (human; mouse) (UniProt P15391); assay: flow cytometry, scFv displayed on SupT1 cells stained with soluble CD19-mouse IgG2a Fc fusion

| Binder | binding [1] | binding [2] | binding [3] |
| --- | --- | --- | --- |
| B1 | binds | binds |  |
| B2 |  |  | binds |
| B3 |  |  | binds |
| B4 |  |  | binds |
| B5 |  |  | binds |
